Measured values published in US20040132641A1 (University of Pennsylvania, published 2004).
No constants are given. Whether binding was seen depends on the method and setting. Some binding calls cover weakened binding; strength is not graded here.

Chains of the proteins cited; added tags and fusions are not shown. Residues count along the entry.
UniProt P48023, residues 103-281: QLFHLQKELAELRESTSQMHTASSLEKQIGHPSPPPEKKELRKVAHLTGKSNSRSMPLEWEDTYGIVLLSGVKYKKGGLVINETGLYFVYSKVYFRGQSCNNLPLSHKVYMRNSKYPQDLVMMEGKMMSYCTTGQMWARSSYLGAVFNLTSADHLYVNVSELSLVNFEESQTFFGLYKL
UniProt P25445, residues 26-173: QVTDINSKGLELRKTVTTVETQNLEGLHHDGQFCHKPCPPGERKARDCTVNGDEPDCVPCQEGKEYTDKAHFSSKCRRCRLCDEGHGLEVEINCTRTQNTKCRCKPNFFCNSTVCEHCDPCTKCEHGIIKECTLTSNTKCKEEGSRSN

Biological target: Flag-tagged soluble human Fas ligand (FasL-Flag) (human) (UniProt P48023)
Assay: competition ELISA: FasL-Flag (100 ng/ml) preincubated with soluble Fas-Fc, added to immobilised Fas-Fc, anti-Flag-HRP detection

binding: binds
Substance: human Fas extra cellular domain-IgGFc fusion protein (Fas-Fc) (from UniProt P25445 26-173)
